Data reported in patent US20210147531A1 (AstraZeneca / MedImmune, published 2021).
Results are given in words; binding and its absence hold for the method and conditions named.

What was measured:
human VEGF121 [1] = target: T1, human VEGF121 (human, UniProt P15692-9 27-147); assay: condition: 2-fold serial dilution starting from 8 nM; ELISA, coated human VEGF121
T1 construct: the isoform is VEGF121
T1 sequence (looked up): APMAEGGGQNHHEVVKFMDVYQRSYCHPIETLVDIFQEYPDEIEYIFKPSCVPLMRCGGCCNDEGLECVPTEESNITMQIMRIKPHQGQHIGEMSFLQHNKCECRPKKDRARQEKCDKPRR

human VEGF121 [2] = target: T1, human VEGF121; assay: condition: about 70 nM (last point just below 100 nM); ELISA on human VEGF121 (Example 8), OD 450 nm against antibody concentration

binding (human VEGF121 [1]): no binding | binding (human VEGF121 [2]): no binding
B1: E06 full length IgG (antibody, V domains shown)
VH: EVQLLESGGGLVQPGGSLRLSCAASGFTFSWYEMYWVRQAPGKGLEWVSSISPSGGWTMYADSVKGRFTISRDNSKNTLYLQMNSLRAEDTAVYYCATPLYSSDGLSAGDIWGQGTMVTVSS
VL: DIQMTQSPATLSLSPGERATLSCRASQSVSSSYLAWYQQKPGQAPRLLIYGASSRATGIPDRFSGSGSGTDFTLTISRLEPEDFATYYCQQSYSTPSFGQGTRLEITR
notes: also called antibody E06; Wt (E06)
